{
  "source": "patent US20220281879A1",
  "about": "“SALT AND CRYSTAL FORMS OF AN ACTIVIN RECEPTOR-LIKE KINASE INHIBITOR” (Blueprint Medicines Corporation, priority 2019, published 2022)",
  "assay": "Dynamic Vapor Sorption (DVS)",
  "assay_type": "physicochemical",
  "details": "listed as 1:1 fumaric acid salt",
  "method": "Dynamic Vapor Sorption (DVS) was done using a DVS Intrinsic 1. The sample was loaded into a sample pan and suspended from a microbalance. A typical sample mass for DVS measurement is 25 mg. Nitrogen gas bubbled through distilled water provides the desired relative humidity. The sample was held for a minimum of 5 min at each level and only progressed to the next humidity level if there was <0.002% change in weight between measurements (interval: 60 seconds) or […] had elapsed. A typical measurement comprises the steps: • 1—Equilibrate at 50% RH • 2—50% to 2%. (50%, 40%, 30%, 20%, 10% and 2%) • a. Hold minimum of 5 mins and maximum of 60 minutes at each humidity. • The pass criteria is less than 0.002% change • 3—2% to 95% (2%, 10%, 20%, 30%, 40%, 50%, 60%, 70%, 80%, 90%, 95%) • a. Hold minimum of 5 mins and maximum of 60 minutes at each humidity.\nThe pass criteria is less than 0.002% change • 4—95% to 2% (95%, 80%, 70%, 60%, 50%, 40%, 30%, 20%, 10%, 2%) • a. Hold minimum of 5 mins and maximum of 60 minutes at each humidity. • The pass criteria is less than 0.002% change • 5—2% to 50% (2%, 10%, 20%, 30%, 40%, 50%) • a. Hold minimum of 5 mins and maximum of 60 minutes at each humidity. • The pass criteria is less than 0.002% change",
  "note": "At least one structure is not confirmed: it was looked up by name or label, or the drawing left a doubt.",
  "data": [
    {"smiles": "CCOC1(c2ccc(-c3cc4c(N5CCN(C(=O)O[C@@H]6CCOC6)CC5)ccnn4c3)nc2)CCN(C(C)C)CC1", "note": "[fumarate]", "values": [
      {"measurement": "hygroscopicity (in words)", "value": "non-hygroscopic"}
    ]}
  ]
}
